Data from publication doi:10.1101/2022.09.10.507366.
No constants are given. Whether binding was seen depends on the method and setting. In cells and extracts the contact can be indirect. Here binding means that the protein was enriched with, or labelled near, the bait; the list need not be complete. Sequences can lack the tags named with a protein.

Biological target: T1, FLAG-tagged FBXO11 (UniProt Q86XK2)
T1 sequence: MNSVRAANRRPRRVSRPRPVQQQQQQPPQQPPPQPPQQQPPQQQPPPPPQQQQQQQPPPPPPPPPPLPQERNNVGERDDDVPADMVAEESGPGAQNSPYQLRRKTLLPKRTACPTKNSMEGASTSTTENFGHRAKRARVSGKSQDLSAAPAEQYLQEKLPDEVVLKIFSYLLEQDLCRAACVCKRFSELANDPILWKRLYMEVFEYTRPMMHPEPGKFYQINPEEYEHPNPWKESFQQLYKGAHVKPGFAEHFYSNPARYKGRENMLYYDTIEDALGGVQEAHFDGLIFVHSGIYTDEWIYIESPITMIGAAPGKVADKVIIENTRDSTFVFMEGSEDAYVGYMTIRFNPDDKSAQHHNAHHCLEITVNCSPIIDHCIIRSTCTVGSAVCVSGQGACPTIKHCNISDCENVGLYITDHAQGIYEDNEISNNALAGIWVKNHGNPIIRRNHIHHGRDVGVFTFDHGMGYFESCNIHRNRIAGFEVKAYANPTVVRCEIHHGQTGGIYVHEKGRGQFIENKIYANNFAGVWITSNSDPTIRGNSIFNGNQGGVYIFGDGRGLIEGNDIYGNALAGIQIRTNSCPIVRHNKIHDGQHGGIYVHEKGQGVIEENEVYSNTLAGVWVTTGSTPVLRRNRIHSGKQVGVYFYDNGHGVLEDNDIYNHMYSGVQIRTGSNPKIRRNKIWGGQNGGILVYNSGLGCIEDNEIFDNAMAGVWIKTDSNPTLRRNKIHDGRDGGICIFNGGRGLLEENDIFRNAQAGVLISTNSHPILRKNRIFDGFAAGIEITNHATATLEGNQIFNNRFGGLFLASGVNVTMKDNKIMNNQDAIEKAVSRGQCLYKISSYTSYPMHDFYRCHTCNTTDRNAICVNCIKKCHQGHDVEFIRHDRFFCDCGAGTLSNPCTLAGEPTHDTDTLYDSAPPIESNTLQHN
Assay: affinity purification with mass spectrometry

For SKP1 (from UniProt P63208 1-163), the binding was “binds”.
